According to the supplement of paper PMC4604168 (melanoma cell lines):
Some of the results follow. Repeats are few or missing, and single values can be far off.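 Imaging used 1,536-well plates; nuclei positive for cleaved PARP by antibody were divided by total DNA-stained nuclei to yield the apoptosis fraction. Doses for screening kept most cells viable, and cell lines differ markedly in resting and induced cleaved-PARP levels.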

Tests used:
Assay in all cases: cleaved PARP positive nuclei fraction relative to DMSO control; melanoma cells; higher = more apoptosis
Conditions in all cases: library dose: low library concentration; 72 h
501Mel = test system: 501Mel
A101D = test system: A101D
A2058 = test system: A2058
A375 = test system: A375
C32 = test system: C32
CBRC008 = test system: CBRC008 (line from a melanoma biopsy)
CBRC014 = test system: CBRC014 (line from a melanoma biopsy)
CBRC016 = test system: CBRC016 (line from a melanoma biopsy)
CBRC017 = test system: CBRC017 (line from a melanoma biopsy)
CBRC034 = test system: CBRC034 (line from a melanoma biopsy)
COLO792 = test system: COLO792
COLO800 = test system: COLO800
COLO829 = test system: COLO829
G361 = test system: G361
IPC-298 = test system: IPC-298
IST-MEL1 = test system: IST-MEL1
LB2518-MEL = test system: LB2518-MEL
LOXIMVI = test system: LOXIMVI
MEL-HO = test system: MEL-HO

| SMILES | cleaved PARP positive nuclei fraction (501Mel) [%] | cleaved PARP positive nuclei fraction (A101D) [%] | cleaved PARP positive nuclei fraction (A2058) [%] | cleaved PARP positive nuclei fraction (A375) [%] | cleaved PARP positive nuclei fraction (C32) [%] | cleaved PARP positive nuclei fraction (CBRC008) [%] | cleaved PARP positive nuclei fraction (CBRC014) [%] | cleaved PARP positive nuclei fraction (CBRC016) [%] | cleaved PARP positive nuclei fraction (CBRC017) [%] | cleaved PARP positive nuclei fraction (CBRC034) [%] | cleaved PARP positive nuclei fraction (COLO792) [%] | cleaved PARP positive nuclei fraction (COLO800) [%] | cleaved PARP positive nuclei fraction (COLO829) [%] | cleaved PARP positive nuclei fraction (G361) [%] | cleaved PARP positive nuclei fraction (IPC-298) [%] | cleaved PARP positive nuclei fraction (IST-MEL1) [%] | cleaved PARP positive nuclei fraction (LB2518-MEL) [%] | cleaved PARP positive nuclei fraction (LOXIMVI) [%] | cleaved PARP positive nuclei fraction (MEL-HO) [%] |
| --- | --- | --- | --- | --- | --- | --- | --- | --- | --- | --- | --- | --- | --- | --- | --- | --- | --- | --- | --- |
| C[C@]1(O)C[C@@H](c2nc(-c3ccc4ccc(-c5ccccc5)nc4c3)c3c(N)nccn32)C1 + Nc1cccc2c1CN(C1CCC(=O)NC1=O)C2=O [lenalidomide] (first compound 0.4 µM, partner dose 1 µM) | 95 | 133 | 230 | 317 | 188 | 51.3 | 114 | 47.7 | 78.8 | 67.2 | 110 | 30.2 | 144 | 145 | 92.9 | 454 | 107 | 28.3 | 51 |
| Cn1cnc2c(F)c(Nc3ccc(Br)cc3Cl)c(C(=O)NOCCO)cc21 [selumetinib] + Nc1cccc2c1CN(C1CCC(=O)NC1=O)C2=O [lenalidomide] (first compound 0.015 µM, partner dose 1 µM) | 3190 | 79.3 | 93.6 | 264 | 84.9 | 80.8 | 69.2 | 59.4 | 140 | 136 | 172 | 92.2 | 72.9 | 143 | 128 | 68.6 | 172 | 167 | 177 |
| CC(=O)O[C@@]12CO[C@@H]1C[C@H](O)[C@@]1(C)C(=O)[C@H](O)C3=C(C)[C@@H](OC(=O)[C@H](O)[C@@H](NC(=O)OC(C)(C)C)c4ccccc4)C[C@@](O)([C@@H](OC(=O)c4ccccc4)[C@H]21)C3(C)C [Docetaxel] + COCC[n+]1c2c(n(Cc3cnccn3)c1C)C(=O)c1ccccc1C2=O [YM155] (first compound 0.0001 µM, partner dose 0.0004 µM) | 364 | 102 | 4110 | 1960 | 85.3 | 220 | 148 | 374 | 228 | 81.2 | 311 | 382 | 219 | 583 | 329 | 55.3 | 348 | 334 | 63.7 |
| NC(=O)c1ccc(N(C(N)=O)c2c(F)cccc2F)nc1-c1ccc(F)cc1F + OCc1c[nH]c2ccccc12 [Indole-3-carbinol] (first compound 0.4 µM, partner dose 0.8 µM) | 78.5 | 116 | 82.6 | 52.8 | 80.7 | 45.4 | 88.9 | 103 | 109 | 69 | 145 | 174 | 99.3 | 92.8 | 118 | 128 | 81.4 | 168 | 68.8 |
| COc1ccc(C2=N[C@@H](c3ccc(Cl)cc3)[C@@H](c3ccc(Cl)cc3)N2C(=O)N2CCNC(=O)C2)c(OC(C)C)c1 [Nutlin-3] + COc1ccc(Cl)c(Nc2nc3ccccc3nc2NS(=O)(=O)c2cccc(NC(=O)C(C)(C)N)c2)c1 [XL147] (first compound 0.1 µM, partner dose 0.8 µM) | 87.4 | 45.6 | 95.7 | 69.4 | 80.5 | 240 | 103 | 131 | 152 | 70.9 | 66.9 | 143 | 18.7 | 63.5 | 85.2 | 71.3 | 242 | 60.2 | 233 |
| C[C@]1(O)C[C@@H](c2nc(-c3ccc4ccc(-c5ccccc5)nc4c3)c3c(N)nccn32)C1 + CN(c1ncccc1CNc1nc(Nc2ccc3c(c2)CC(=O)N3)ncc1C(F)(F)F)S(C)(=O)=O [PF562271] (first compound 0.4 µM, partner dose 0.08 µM) | 176 | 50 | 29 | 11.6 | 33.3 | 52.5 | 107 | 59.5 | 128 | 85.3 | 104 | 167 | 68.4 | 126 | 92.8 | 132 | 151 | 306 | 112 |
| CCN(CC)CCNC(=O)c1c(C)[nH]c(/C=C2\C(=O)Nc3ccc(F)cc32)c1C [sunitinib] + Cn1c(Nc2ccc(C(F)(F)F)cc2)nc2cc(Oc3ccnc(-c4ncc(C(F)(F)F)[nH]4)c3)ccc21 [CHIR265] (first compound 0.4 µM, partner dose 0.08 µM) | 172 | 318 | 255 | 338 | 1230 | 164 | 189 | 66.9 | 89.3 | 112 | 169 | 96.9 | 105 | 133 | 133 | 154 | 147 | 41.4 | 89.9 |
| NC(=O)c1ccc(N(C(N)=O)c2c(F)cccc2F)nc1-c1ccc(F)cc1F + C=C(c1ccc(C(=O)O)cc1)c1cc2c(cc1C)C(C)(C)CCC2(C)C [Bexarotene] (first compound 0.4 µM, partner dose 2 µM) | 102 | 144 | 168 | 257 | 64.7 | 139 | 81.1 | 89.1 | 114 | 58.7 | 95.4 | 97.5 | 51.5 | 127 | 111 | 134 | 100 | 92.9 | 132 |
| CC1(C)CCC(c2ccc(Cl)cc2)=C(CN2CCN(c3ccc(C(=O)NS(=O)(=O)c4ccc(N[C@H](CCN5CCOCC5)CSc5ccccc5)c(S(=O)(=O)C(F)(F)F)c4)cc3)CC2)C1 + NC1(c2ccc(-c3nc4ccn5c(=O)[nH]nc5c4cc3-c3ccccc3)cc2)CCC1 [MK2206] (first compound 0.4 µM, partner dose 0.4 µM) | 149 | 237 | 162 | 838 | 147 | 644 | 670 | 428 | 382 | 74.1 | 566 | 72.1 | 115 | 220 | 131 | 158 | 231 | 958 | 90.4 |
| CS(=O)(=O)c1ccc(C(=O)Nc2ccc(Cl)c(-c3ccccn3)c2)c(Cl)c1 [vismodegib] + Nc1ccn([C@@H]2O[C@H](CO)[C@@H](O)C2(F)F)c(=O)n1 [gemcitabine] (first compound 1 µM, partner dose 0.0004 µM) | 76.4 | 81.8 | 65.5 | 42.6 | 144 | 66.1 | 104 | 37.6 | 110 | 61.8 | 164 | 96.6 | 53.4 | 108 | 42.9 | 110 | 98.8 | 91.5 | 109 |
| CCN(CC)CCNC(=O)c1c(C)[nH]c(/C=C2\C(=O)Nc3ccc(F)cc32)c1C [sunitinib] + Nc1nc(F)nc2c1ncn2[C@@H]1O[C@H](CO)[C@@H](O)[C@@H]1O [fludarabine] (first compound 0.4 µM, partner dose 0.2 µM) | 16600 | 147 | 72.3 | 1890 | 282 | 104 | 89.6 | 147 | 98.5 | 142 | 125 | 121 | 55.4 | 225 | 90.7 | 121 | 206 | 43 | 178 |
| CC1(C)CCC(c2ccc(Cl)cc2)=C(CN2CCN(c3ccc(C(=O)NS(=O)(=O)c4ccc(N[C@H](CCN5CCOCC5)CSc5ccccc5)c(S(=O)(=O)C(F)(F)F)c4)cc3)CC2)C1 + Clc1ccc(Nc2nnc(Cc3ccncc3)c3ccccc23)cc1 [vatalanib] (first compound 0.4 µM, partner dose 2 µM) | 126 | 269 | 346 | 618 | 425 | 578 | 687 | 915 | 293 | 99 | 389 | 65 | 202 | 136 | 256 | 185 | 279 | 43.9 | 54.7 |
| NC(=O)c1ccc(N(C(N)=O)c2c(F)cccc2F)nc1-c1ccc(F)cc1F + CCN(CC)CCNC(=O)c1c(C)[nH]c(/C=C2\C(=O)Nc3ccc(F)cc32)c1C [sunitinib] (first compound 0.4 µM, partner dose 0.4 µM) | 142 | 87.8 | 150 | 112 | 79.5 | 49.4 | 82.8 | 113 | 114 | 137 | 42.5 | 306 | 106 | 148 | 94.1 | 125 | 198 | 72.5 | 57.7 |
| C[C@]1(O)C[C@@H](c2nc(-c3ccc4ccc(-c5ccccc5)nc4c3)c3c(N)nccn32)C1 + CCCCCCCCc1ccc(CCC(N)(CO)CO)cc1 [fingolimod] (first compound 0.4 µM, partner dose 2 µM) | 790 | 109 | 78 | 1120 | 84.3 | 79.4 | 106 | 94.1 | 114 | 79 | 101 | 196 | 56.9 | 190 | 92.4 | 201 | 117 | 119 | 87.5 |
| C[C@]1(O)C[C@@H](c2nc(-c3ccc4ccc(-c5ccccc5)nc4c3)c3c(N)nccn32)C1 + C=CCNC1=C2C[C@@H](C)C[C@H](OC)[C@H](O)[C@@H](C)/C=C(\C)[C@H](OC(N)=O)[C@@H](OC)/C=C\C=C(/C)C(=O)NC(=CC1=O)C2=O [Tanespimycin] (first compound 0.4 µM, partner dose 0.002 µM) | 177 | 94.2 | 111 | 945 | 73 | 121 | 97.9 | 135 | 91.2 | 61.6 | 153 | 133 | 131 | 85 | 179 | 34.6 | 105 | 103 | 115 |
| NC1(c2ccc(-c3nc4ccn5c(=O)[nH]nc5c4cc3-c3ccccc3)cc2)CCC1 + COCC[n+]1c2c(n(Cc3cnccn3)c1C)C(=O)c1ccccc1C2=O [YM155] (first compound 0.4 µM, partner dose 0.0004 µM) | 82.4 | 57.2 | 150 | 456 | 87.7 | 730 | 78.3 | 173 | 103 | 100 | 106 | 68.5 | 228 | 86.2 | 103 | 65.9 | 150 | 114 | 67.7 |

Rewritten bar-delimited: part of the list above.
SMILES | cleaved PARP positive nuclei fraction (501Mel) [%] | cleaved PARP positive nuclei fraction (A101D) [%] | cleaved PARP positive nuclei fraction (A2058) [%] | cleaved PARP positive nuclei fraction (A375) [%] | cleaved PARP positive nuclei fraction (C32) [%] | cleaved PARP positive nuclei fraction (CBRC008) [%] | cleaved PARP positive nuclei fraction (CBRC014) [%] | cleaved PARP positive nuclei fraction (CBRC016) [%] | cleaved PARP positive nuclei fraction (CBRC017) [%] | cleaved PARP positive nuclei fraction (CBRC034) [%] | cleaved PARP positive nuclei fraction (COLO792) [%] | cleaved PARP positive nuclei fraction (COLO800) [%] | cleaved PARP positive nuclei fraction (COLO829) [%] | cleaved PARP positive nuclei fraction (G361) [%] | cleaved PARP positive nuclei fraction (IPC-298) [%] | cleaved PARP positive nuclei fraction (IST-MEL1) [%] | cleaved PARP positive nuclei fraction (LB2518-MEL) [%] | cleaved PARP positive nuclei fraction (LOXIMVI) [%] | cleaved PARP positive nuclei fraction (MEL-HO) [%]
NC(=O)c1ccc(N(C(N)=O)c2c(F)cccc2F)nc1-c1ccc(F)cc1F + OCc1c[nH]c2ccccc12 [Indole-3-carbinol] (first compound 0.4 µM, partner dose 0.8 µM) | 78.5 | 116 | 82.6 | 52.8 | 80.7 | 45.4 | 88.9 | 103 | 109 | 69 | 145 | 174 | 99.3 | 92.8 | 118 | 128 | 81.4 | 168 | 68.8
COc1ccc(C2=N[C@@H](c3ccc(Cl)cc3)[C@@H](c3ccc(Cl)cc3)N2C(=O)N2CCNC(=O)C2)c(OC(C)C)c1 [Nutlin-3] + COc1ccc(Cl)c(Nc2nc3ccccc3nc2NS(=O)(=O)c2cccc(NC(=O)C(C)(C)N)c2)c1 [XL147] (first compound 0.1 µM, partner dose 0.8 µM) | 87.4 | 45.6 | 95.7 | 69.4 | 80.5 | 240 | 103 | 131 | 152 | 70.9 | 66.9 | 143 | 18.7 | 63.5 | 85.2 | 71.3 | 242 | 60.2 | 233
